No constants are given. Whether binding was seen depends on the method and setting. In cells and extracts the contact can be indirect. Some results given as binding are weak or reduced against the parent protein; the word gives no strength. Sequences can lack the tags named with a protein.
Biological target: T1, GST-GGA1-GAT (UniProt Q9UJY5)
T1 sequence: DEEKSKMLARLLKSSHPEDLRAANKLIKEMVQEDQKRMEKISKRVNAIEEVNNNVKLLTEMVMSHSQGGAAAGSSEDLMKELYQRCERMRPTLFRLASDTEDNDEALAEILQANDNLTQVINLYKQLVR
Assay: pull-down; GST-GGA1-GAT immobilised on glutathione sepharose beads, incubated with BON cell extracts (RIPA buffer) for 2 hrs at 4°C; bound Arf1 detected by western blotting; cells serum starved 12 hrs, then untreated or treated with DMSO, Brefeldin A, IGF-1, BMS-536924, LY-294,002, MK-2206, Rapamycin or PD98059 for 4 hrs; only the target purified

By UniProt entry, the sequences of proteins in these tests, tags left out.
UniProt P84077: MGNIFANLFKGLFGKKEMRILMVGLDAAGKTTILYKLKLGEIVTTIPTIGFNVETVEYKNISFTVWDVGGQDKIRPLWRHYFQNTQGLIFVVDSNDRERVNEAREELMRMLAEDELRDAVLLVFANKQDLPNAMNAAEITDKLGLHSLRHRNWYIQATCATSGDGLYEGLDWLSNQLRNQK

- binding: binds
Substance: Arf1 (active, GTP-bound) (from UniProt P84077 1-181)

Source: paper PMC4420598
